# Results from the supplement of paper PMC8728848.
# Some of the results follow.
# B1: SrpA (Streptococcus sanguis) (protein)
# chain: SSKSESTVNSQSASSETNRSSTNNGSTSSSSETARVRKRRATDTTPPTITVPSDIIAYRGEEFEFYFEITDDSGQVKNIELSTFGKPLGLNWLEYSEDNFNVPGNATSDNPLRVRVHGTVPLNEPIPADKNRAQFTRTIRAWDAAGNVSSNITFVIKYRAQTDKYNPADPTITYVDRLSSLSPSEKNAVEAAVRAANPQIPAAARITVSANGTVTITYPDSSTDTITANRVVKDLASSRSALT
# What was measured:
# Test in all cases: glycan array binding signal (z-score within array); higher = stronger binding
# Conditions in all cases: glycan notation: IUPAC condensed, linker removed
# [1] = biological target: Man(a1-3)[Man(a1-6)]Man(b1-4)GlcNAc(b1-4)GlcNAc
# Outline: (§1)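 Glycan array data were curated from 3228 arrays in the Consortium for Functional Glycomics database and kept only where the protein sequence was available. Glycan names were converted to IUPAC-condensed notation, and columns mapping to the same glycan were averaged. The binding signal is a within-array Z-score, averaged across arrays of the same protein sequence at different concentrations or buffers and across linkers. Negative Z-scores can be read as non-binding.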
# [2] = biological target: Man(b1-4)GlcNAc
# Outline: as §1
# [3] = biological target: Neu5Ac(a2-3)Gal
# Outline: as §1
# [4] = biological target: Neu5Ac(a2-3)Gal(b1-3)GalNAc
# Outline: as §1
# [5] = biological target: Neu5Ac(a2-3)Gal(b1-3)GalNAc(b1-3)Gal(a1-4)Gal(b1-4)Glc
# Outline: as §1
# [6] = biological target: Neu5Ac(a2-3)Gal(b1-3)GalNAc(b1-3)Gal(b1-4)GlcNAc
# Outline: as §1
# [7] = biological target: Neu5Ac(a2-3)Gal(b1-3)GalNAc(b1-4)[Neu5Ac(a2-3)]Gal(b1-4)Glc
# Outline: as §1
# [8] = biological target: Neu5Ac(a2-3)Gal(b1-3)GalNAc6S
# Outline: as §1
# [9] = biological target: Neu5Ac(a2-3)Gal(b1-3)GlcNAc
# Outline: as §1
# [10] = biological target: Neu5Ac(a2-3)Gal(b1-3)GlcNAc(b1-3)Gal(b1-3)GlcNAc
# Outline: as §1
# [11] = biological target: Neu5Ac(a2-3)Gal(b1-3)GlcNAc6S
# Outline: as §1
# [12] = biological target: Neu5Ac(a2-3)Gal(b1-3)[Fuc(a1-4)]GlcNAc
# Outline: as §1
# [13] = biological target: Neu5Ac(a2-3)Gal(b1-3)[Fuc(a1-4)]GlcNAc(b1-3)Gal(b1-4)[Fuc(a1-3)]GlcNAc
# Outline: as §1
# [14] = biological target: Neu5Ac(a2-3)Gal(b1-3)[Neu5Ac(a2-3)Gal(b1-4)]GlcNAc
# Outline: as §1
# [15] = biological target: Neu5Ac(a2-3)Gal(b1-3)[Neu5Ac(a2-6)]GalNAc
# Outline: as §1
# [16] = biological target: Neu5Ac(a2-3)Gal(b1-4)Glc
# Outline: as §1
# [17] = biological target: Neu5Ac(a2-3)Gal(b1-4)GlcNAc
# Outline: as §1
# [18] = biological target: Neu5Ac(a2-3)Gal(b1-4)GlcNAc(b1-3)Gal(b1-3)GlcNAc
# Outline: as §1
# [19] = biological target: Neu5Ac(a2-3)Gal(b1-4)GlcNAc(b1-3)Gal(b1-4)GlcNAc
# Outline: as §1
# [20] = biological target: Neu5Ac(a2-3)Gal(b1-4)GlcNAc(b1-3)Gal(b1-4)GlcNAc(b1-3)Gal(b1-4)GlcNAc
# Outline: as §1
# [21] = biological target: Neu5Ac(a2-3)Gal(b1-4)GlcNAc(b1-3)Gal(b1-4)[Fuc(a1-3)]GlcNAc
# Outline: as §1
# [22] = biological target: Neu5Ac(a2-3)Gal(b1-4)GlcNAc(b1-6)[Gal(b1-3)]GalNAc
# Outline: as §1
# [23] = biological target: Neu5Ac(a2-3)Gal(b1-4)GlcNAc6S
# Outline: as §1
# [24] = biological target: Neu5Ac(a2-3)Gal(b1-4)[Fuc(a1-3)]GlcNAc
# Outline: as §1
# [25] = biological target: Neu5Ac(a2-3)Gal(b1-4)[Fuc(a1-3)]GlcNAc(b1-3)Gal
# Outline: as §1
# [26] = biological target: Neu5Ac(a2-3)Gal(b1-4)[Fuc(a1-3)]GlcNAc(b1-3)Gal(b1-4)GlcNAc
# Outline: as §1
# [27] = biological target: Neu5Ac(a2-3)Gal(b1-4)[Fuc(a1-3)]GlcNAc(b1-3)Gal(b1-4)[Fuc(a1-3)]GlcNAc(b1-3)Gal(b1-4)[Fuc(a1-3)]GlcNAc
# Outline: as §1
# [28] = biological target: Neu5Ac(a2-3)Gal(b1-4)[Fuc(a1-3)]GlcNAc6S
# Outline: as §1
# [29] = biological target: Neu5Ac(a2-3)Gal6S(b1-4)GlcNAc
# Outline: as §1
# [30] = biological target: Neu5Ac(a2-3)Gal6S(b1-4)[Fuc(a1-3)]GlcNAc
# Outline: as §1
# [31] = biological target: Neu5Ac(a2-3)GalNAc
# Outline: as §1
# [32] = biological target: Neu5Ac(a2-3)GalNAc(b1-4)GlcNAc
# Outline: as §1
# [33] = biological target: Neu5Ac(a2-3)[GalNAc(b1-4)]Gal(b1-4)Glc
# Outline: as §1
# [34] = biological target: Neu5Ac(a2-3)[GalNAc(b1-4)]Gal(b1-4)GlcNAc
# Outline: as §1
# [35] = biological target: Neu5Ac(a2-3)[Neu5Ac(a2-6)]GalNAc
# Outline: as §1
# [36] = biological target: Neu5Ac(a2-6)Gal
# Outline: as §1
# [37] = biological target: Neu5Ac(a2-6)Gal(b1-4)Glc
# Outline: as §1
# [38] = biological target: Neu5Ac(a2-6)Gal(b1-4)GlcNAc
# Outline: as §1
# [39] = biological target: Neu5Ac(a2-6)Gal(b1-4)GlcNAc(b1-2)Man(a1-3)[Neu5Ac(a2-6)Gal(b1-4)GlcNAc(b1-2)Man(a1-6)]Man(b1-4)GlcNAc(b1-4)GlcNAc
# Outline: as §1
# [40] = biological target: Neu5Ac(a2-6)Gal(b1-4)GlcNAc(b1-3)Gal(b1-4)GlcNAc
# Outline: as §1
# [41] = biological target: Neu5Ac(a2-6)Gal(b1-4)GlcNAc(b1-3)Gal(b1-4)[Fuc(a1-3)]GlcNAc(b1-3)Gal(b1-4)[Fuc(a1-3)]GlcNAc
# Outline: as §1
# [42] = biological target: Neu5Ac(a2-6)Gal(b1-4)GlcNAc6S
# Outline: as §1
# [43] = biological target: Neu5Ac(a2-6)GalNAc
# Outline: as §1
# [44] = biological target: Neu5Ac(a2-6)GalNAc(b1-4)GlcNAc
# Outline: as §1
# [45] = biological target: Neu5Ac(a2-8)Neu5Ac
# Outline: as §1
# [46] = biological target: Neu5Ac(a2-8)Neu5Ac(a2-3)Gal(b1-4)Glc
# Outline: as §1
# [47] = biological target: Neu5Ac(a2-8)Neu5Ac(a2-3)[GalNAc(b1-4)]Gal(b1-4)Glc
# Outline: as §1
# [48] = biological target: Neu5Ac(a2-8)Neu5Ac(a2-8)Neu5Ac
# Outline: as §1
# [49] = biological target: Neu5Ac(a2-8)Neu5Ac(a2-8)Neu5Ac(a2-3)Gal(b1-4)Glc
# Outline: as §1
# [50] = biological target: Neu5Ac(a2-8)Neu5Ac(a2-8)Neu5Ac(a2-3)[GalNAc(b1-4)]Gal(b1-4)Glc
# Outline: as §1
# [51] = biological target: Neu5Ac(a2-8)Neu5Ac(a2-8)Neu5Ac(a2-8)Neu5Ac(a2-3)[GalNAc(b1-4)]Gal(b1-4)Glc
# Outline: as §1
# [52] = biological target: Neu5Ac(b2-6)Gal(b1-4)GlcNAc
# Outline: as §1
# [53] = biological target: Neu5Ac(b2-6)GalNAc
# Outline: as §1
# [54] = biological target: Neu5Ac9Ac(a2-6)Gal(b1-4)GlcNAc
# Outline: as §1
# [55] = biological target: Neu5Gc(a2-3)Gal(b1-3)GlcNAc
# Outline: as §1
# [56] = biological target: Neu5Gc(a2-3)Gal(b1-3)[Fuc(a1-4)]GlcNAc
# Outline: as §1
# [57] = biological target: Neu5Gc(a2-3)Gal(b1-4)Glc
# Outline: as §1
# [58] = biological target: Neu5Gc(a2-3)Gal(b1-4)GlcNAc
# Outline: as §1
# [59] = biological target: Neu5Gc(a2-3)Gal(b1-4)[Fuc(a1-3)]GlcNAc
# Outline: as §1
# [60] = biological target: Neu5Gc(a2-6)Gal(b1-4)GlcNAc
# Outline: as §1
# [61] = biological target: Neu5Gc(a2-6)GalNAc
# Outline: as §1
binder,measurement,setting,value
B1,glycan array binding signal (z-score),[1],-0.474
same,glycan array binding signal (z-score),[2],-0.488
same,glycan array binding signal (z-score),[3],-0.752
same,glycan array binding signal (z-score),[4],-0.679
same,glycan array binding signal (z-score),[5],-0.702
same,glycan array binding signal (z-score),[6],-0.695
same,glycan array binding signal (z-score),[7],-0.383
same,glycan array binding signal (z-score),[8],-0.767
same,glycan array binding signal (z-score),[9],0.115
same,glycan array binding signal (z-score),[10],0.129
same,glycan array binding signal (z-score),[11],-0.974
same,glycan array binding signal (z-score),[12],-0.235
same,glycan array binding signal (z-score),[13],-0.079
same,glycan array binding signal (z-score),[14],-0.086
same,glycan array binding signal (z-score),[15],0.22
same,glycan array binding signal (z-score),[16],-0.441
same,glycan array binding signal (z-score),[17],-0.448
same,glycan array binding signal (z-score),[18],-0.961
same,glycan array binding signal (z-score),[19],0.367
same,glycan array binding signal (z-score),[20],-0.256
same,glycan array binding signal (z-score),[21],1.55
same,glycan array binding signal (z-score),[22],0.075
same,glycan array binding signal (z-score),[23],-0.575
same,glycan array binding signal (z-score),[24],-0.391
same,glycan array binding signal (z-score),[25],-0.439
same,glycan array binding signal (z-score),[26],1.25
same,glycan array binding signal (z-score),[27],-0.761
same,glycan array binding signal (z-score),[28],-0.966
same,glycan array binding signal (z-score),[29],-0.1
same,glycan array binding signal (z-score),[30],0.605
same,glycan array binding signal (z-score),[31],-0.137
same,glycan array binding signal (z-score),[32],-0.786
same,glycan array binding signal (z-score),[33],-0.615
same,glycan array binding signal (z-score),[34],-0.442
same,glycan array binding signal (z-score),[35],-0.566
same,glycan array binding signal (z-score),[36],0.013
same,glycan array binding signal (z-score),[37],-0.673
same,glycan array binding signal (z-score),[38],-0.311
same,glycan array binding signal (z-score),[39],0.184
same,glycan array binding signal (z-score),[40],-0.702
same,glycan array binding signal (z-score),[41],-0.215
same,glycan array binding signal (z-score),[42],0.054
same,glycan array binding signal (z-score),[43],5.01
same,glycan array binding signal (z-score),[44],-0.618
same,glycan array binding signal (z-score),[45],-0.726
same,glycan array binding signal (z-score),[46],-0.962
same,glycan array binding signal (z-score),[47],-0.576
same,glycan array binding signal (z-score),[48],-0.629
same,glycan array binding signal (z-score),[49],-0.596
same,glycan array binding signal (z-score),[50],-0.901
same,glycan array binding signal (z-score),[51],2.24
same,glycan array binding signal (z-score),[52],-0.856
same,glycan array binding signal (z-score),[53],-0.755
same,glycan array binding signal (z-score),[54],0.123
same,glycan array binding signal (z-score),[55],-0.727
same,glycan array binding signal (z-score),[56],-0.954
same,glycan array binding signal (z-score),[57],-0.335
same,glycan array binding signal (z-score),[58],-0.45
same,glycan array binding signal (z-score),[59],-0.203
same,glycan array binding signal (z-score),[60],-0.678
same,glycan array binding signal (z-score),[61],-0.031
